PubChem BioAssay AID686938 – Drosophila RNAi Screening Center | 2013
Screen: 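Fly genes required for calcium entry once internal stores are emptied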 (primary screen). System: Drosophila S2R+ cells. Reagents: long dsRNA against Drosophila genes, about 0.25 µg dsRNA per well, roughly 10,000 cells. Duration: 5 days of knock-down before the calcium assay. Conditions: thapsigargin (SERCA pump blocker) to empty calcium stores; entry signal taken 4 min after adding it. Measured: 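Per-well fluo-4 fluorescence in two replicates, unnormalised, measured in resting cells and 4 min after store depletion by the SERCA blocker thapsigargin; ratio of the two present in few wells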. Direction: calcium entry signal: higher = stronger calcium signal after store depletion; resting calcium signal: higher = higher resting calcium signal. Units: calcium entry signal in fluorescence units; resting calcium signal in fluorescence units. Active means: 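Hit if the duplicate-averaged plate z-score for entry over resting signal is under −3; wells with weak total dye signal (Fmax z < −2) or more than 5 off-targets removed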. Meaning of the calls: active = strongly reduced calcium entry; inactive = no strong reduction.
The screen tested about 23,000 reagents; shown is a random part of those that have a named target and a result. In the full data, 75 (0.33%) were called active. 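Raw plate signals without normalisation; calls rest on plate z-scores that were not deposited; ratio present for only 364 wells.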 Names joined by + are all predicted targets of the reagent. The record does not give: the dose of the treatment.

Cpr73D (GeneID 39897) [DRSC11084] scored calcium entry signal, replicate 1 = 2.13e7; calcium entry signal, replicate 2 = 2.88e7; resting calcium signal, replicate 1 = 1.05e7; resting calcium signal, replicate 2 = 2.09e7; inactive.
CG33267 (GeneID 2768969) [DRSC09120] gave calcium entry signal, replicate 1 = 3.60e7; calcium entry signal, replicate 2 = 5.29e7; resting calcium signal, replicate 1 = 1.79e7; resting calcium signal, replicate 2 = 2.31e7; inactive.
Depletion of Crk (GeneID 43775) [DRSC17163] came out at: calcium entry signal, replicate 1 = 3.77e7; calcium entry signal, replicate 2 = 3.92e7; resting calcium signal, replicate 1 = 1.77e7; resting calcium signal, replicate 2 = 1.83e7; inactive.
After knock-down of CG15549 (GeneID 43665) [DRSC15087], the screen gave calcium entry signal, replicate 1 = 4.08e7; calcium entry signal, replicate 2 = 6.30e7; resting calcium signal, replicate 1 = 2.07e7; resting calcium signal, replicate 2 = 2.65e7; inactive.
After knock-down of CG13058 (GeneID 39806) [DRSC09941], the record shows calcium entry signal, replicate 1 = 5.52e7; calcium entry signal, replicate 2 = 7.48e7; resting calcium signal, replicate 1 = 2.46e7; resting calcium signal, replicate 2 = 2.98e7; inactive.
beta3GalTII (GeneID 35848) [DRSC07253] showed calcium entry signal, replicate 1 = 4.84e7; calcium entry signal, replicate 2 = 4.42e7; resting calcium signal, replicate 1 = 2.27e7; resting calcium signal, replicate 2 = 1.68e7; inactive.
CG43439 + CG32388 [DRSC08861] gave calcium entry signal, replicate 1 = 3.99e7; calcium entry signal, replicate 2 = 4.38e7; resting calcium signal, replicate 1 = 2.08e7; resting calcium signal, replicate 2 = 2.04e7; inactive.
After knock-down of CG17122 (GeneID 40226) [DRSC10245] the results were calcium entry signal, replicate 1 = 2.66e7; calcium entry signal, replicate 2 = 4.19e7; resting calcium signal, replicate 1 = 1.31e7; resting calcium signal, replicate 2 = 1.75e7; inactive.
After knock-down of CG4000 (GeneID 42451) [DRSC15535], the record shows calcium entry signal, replicate 1 = 4.49e7; calcium entry signal, replicate 2 = 4.98e7; resting calcium signal, replicate 1 = 6.28e7; resting calcium signal, replicate 2 = 2.26e7; inactive.
CG4000 (GeneID 42451) [DRSC21547] showed calcium entry signal, replicate 1 = 4.35e7; calcium entry signal, replicate 2 = 3.71e7; resting calcium signal, replicate 1 = 2.51e7; resting calcium signal, replicate 2 = 1.82e7; inactive.

Laid out differently: entries from further up.
Target gene | DRSC id | calcium entry signal, replicate 1 | calcium entry signal, replicate 2 | resting calcium signal, replicate 1 | resting calcium signal, replicate 2 | Outcome
CG4000 (GeneID 42451) | DRSC15535 | 4.49e7 | 4.98e7 | 6.28e7 | 2.26e7 | inactive
CG4000 (GeneID 42451) | DRSC21547 | 4.35e7 | 3.71e7 | 2.51e7 | 1.82e7 | inactive

Additional records follow.
Silencing of CecB (GeneID 43598) [DRSC16605] came out at: calcium entry signal, replicate 1 = 2.76e7; calcium entry signal, replicate 2 = 2.96e7; resting calcium signal, replicate 1 = 1.42e7; resting calcium signal, replicate 2 = 1.25e7; inactive.
Against AcCoAS (GeneID 40348) [DRSC11477], the values are calcium entry signal, replicate 1 = 3.60e7; calcium entry signal, replicate 2 = 5.31e7; resting calcium signal, replicate 1 = 1.95e7; resting calcium signal, replicate 2 = 2.93e7; inactive.
Against AcCoAS (GeneID 40348) [DRSC11603], the entry reads calcium entry signal, replicate 1 = 3.94e7; calcium entry signal, replicate 2 = 4.68e7; resting calcium signal, replicate 1 = 2.04e7; resting calcium signal, replicate 2 = 3.38e7; inactive.
AcCoAS (GeneID 40348) [DRSC22850] scored calcium entry signal, replicate 1 = 2.24e7; calcium entry signal, replicate 2 = 4.19e7; resting calcium signal, replicate 1 = 1.20e7; resting calcium signal, replicate 2 = 2.04e7; inactive.
Silencing of CG13840 (GeneID 42705) [DRSC14690] gave: calcium entry signal, replicate 1 = 5.23e7; calcium entry signal, replicate 2 = 3.79e7; resting calcium signal, replicate 1 = 2.40e7; resting calcium signal, replicate 2 = 1.62e7; inactive.
For CG13840 (GeneID 42705) [DRSC23279], the entry reads calcium entry signal, replicate 1 = 5.86e7; calcium entry signal, replicate 2 = 3.70e7; resting calcium signal, replicate 1 = 2.96e7; resting calcium signal, replicate 2 = 1.56e7; inactive.
For CG42376 + cin [DRSC18752] the deposit lists calcium entry signal, replicate 1 = 4.05e7; calcium entry signal, replicate 2 = 3.87e7; resting calcium signal, replicate 1 = 1.86e7; resting calcium signal, replicate 2 = 1.91e7; inactive.
Knock-down of CG2921 (GeneID 37515) [DRSC04324] came out at: calcium entry signal, replicate 1 = 3.02e7; resting calcium signal, replicate 1 = 1.49e7; inactive.
For cpx (GeneID 64877) [DRSC11999], the values are calcium entry signal, replicate 1 = 3.39e7; calcium entry signal, replicate 2 = 4.11e7; resting calcium signal, replicate 1 = 1.94e7; resting calcium signal, replicate 2 = 1.95e7; inactive.
ArfGAP1 (GeneID 39417) [DRSC11173] gave calcium entry signal, replicate 1 = 2.80e7; calcium entry signal, replicate 2 = 3.78e7; resting calcium signal, replicate 1 = 1.62e7; resting calcium signal, replicate 2 = 1.85e7; inactive.
DCTN6-p27 (GeneID 35195) [DRSC02609] scored calcium entry signal, replicate 1 = 4.38e7; calcium entry signal, replicate 2 = 4.55e7; resting calcium signal, replicate 1 = 2.27e7; resting calcium signal, replicate 2 = 2.30e7; inactive.
Knock-down of DCTN6-p27 (GeneID 35195) [DRSC22810] resulted in: calcium entry signal, replicate 1 = 3.15e7; calcium entry signal, replicate 2 = 3.44e7; resting calcium signal, replicate 1 = 1.68e7; resting calcium signal, replicate 2 = 1.76e7; inactive.
